Experimental data: PubChem BioAssay AID1259308 (NCATS, 2017)
The whole screen tested about 59,000 reagents; this is a random part of them. About 1,510 of all reagents (2.6%) count as active. 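Calls use total luciferase alone and ignore viability, so some active siRNAs may act by altering cell number.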 Entries without a mark were called inactive. Reagents against one gene are numbered here.

Aim: 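Knock-downs that increase output of a recombinant reporter protein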 (primary screen)
System: human HEK293 embryonic kidney cells stably expressing firefly luciferase (HEK-CMV-Luc2-Hygro)
Reagents: single siRNA against human genes, 0.8 pmol siRNA per well
Duration: 72 h
Read-out: 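Luciferase light (ONE-Glo) measured on one replicate plate set and viability (CellTiter-Glo) on the other, scaled to a negative control siRNA, with robust z-scores and luciferase per cell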
Scale: total luciferase, z-score and total luciferase, % of control: higher = more reporter protein produced; luciferase per cell, z-score: higher = more reporter output per viable cell; viable cells, % of control: higher = more viable cells
Rule for the call: 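Active when the median/MAD z-score for overall luciferase is greater than 3; a gene was taken forward for validation with new siRNAs if at least two of its three siRNAs passed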
Meaning of the calls: active = raised luciferase; inactive = no rise

no.	target	reagent no.	total luciferase, z-score	total luciferase, % of control	luciferase per cell, z-score	viable cells, % of control
1	DLX6 (distal-less homeobox 6)	1	-0.904	63.9	-0.977	92.4
2	DLX6 (distal-less homeobox 6)	2	-1.03	61.3	-1.04	90
3	DLX6 (distal-less homeobox 6)	3	1.25	107	1.3	84.8
4	PDRG1 (p53 and DNA damage regulated 1)	1	0.932	100	0.367	102
5	PDRG1 (p53 and DNA damage regulated 1)	2	0.246	86.8	-0.0332	97.8
6	PDRG1 (p53 and DNA damage regulated 1)	3	-0.105	79.8	-0.0493	90.3
7	CMC1 (C-X9-C motif containing 1)	1	-0.465	72.6	-0.551	93.8
8	CMC1 (C-X9-C motif containing 1)	2	1.14	105	0.446	104
9	CMC1 (C-X9-C motif containing 1)	3	0.734	96.5	0.196	102
10	HIPK2 (homeodomain interacting protein kinase 2)	1	-1.03	61.3	-1.54	103
11	HIPK2 (homeodomain interacting protein kinase 2)	2	-0.805	65.9	-0.63	86.9
12	HIPK2 (homeodomain interacting protein kinase 2)	3	-0.093	80	-0.564	104
13	HIPK2 (homeodomain interacting protein kinase 2)	4	-0.0651	80.6	-0.327	98.1
14	HIPK2 (homeodomain interacting protein kinase 2)	5	0.57	93.2	0.503	91.2
15	HIPK2 (homeodomain interacting protein kinase 2)	6	-1.64	49.2	-1.45	80.6
16	OR1F1 (olfactory receptor family 1 subfamily F member 1)	1	-2.22	37.7	-1.99	71.1
17	OR1F1 (olfactory receptor family 1 subfamily F member 1)	2	-1.19	58.2	-1.31	92
18	OR1F1 (olfactory receptor family 1 subfamily F member 1)	3	0.0856	83.6	-0.0474	94.6
19	BHLHE22 (basic helix-loop-helix family member e22)	1	-1.32	55.7	-0.675	74.4
20	BHLHE22 (basic helix-loop-helix family member e22)	2	0.162	85.1	0.0573	93.7
21	BHLHE22 (basic helix-loop-helix family member e22)	3	0.376	89.4	0.556	86.3
22	DSCR4 (Down syndrome critical region 4)	1	-2.26	37	-1.18	56.4
23	DSCR4 (Down syndrome critical region 4)	2	-1.04	61.3	-0.0203	68.8
24	DSCR4 (Down syndrome critical region 4)	3	0.00235	81.9	-0.193	96.3
25	ARHGEF38 (Rho guanine nucleotide exchange factor 38)	1	1.8	118	0.762	108
26	ARHGEF38 (Rho guanine nucleotide exchange factor 38)	2	-0.399	73.9	-0.699	99.3
27	ARHGEF38 (Rho guanine nucleotide exchange factor 38)	3	-0.436	73.2	-0.312	88.8
28	BDKRB2 (bradykinin receptor B2)	1	0.714	96.1	0.905	84.6
29	BDKRB2 (bradykinin receptor B2)	2	2.25	127	1.89	86
30	BDKRB2 (bradykinin receptor B2)	3	-0.502	71.9	-0.17	84

4 entries from above, set out differently:
{"target":"DSCR4 (Down syndrome critical region 4)","reagent no.":3,"total luciferase, z-score":0.00235,"total luciferase, % of control":81.9,"luciferase per cell, z-score":-0.193,"viable cells, % of control":96.3}
{"target":"ARHGEF38 (Rho guanine nucleotide exchange factor 38)","reagent no.":1,"total luciferase, z-score":1.8,"total luciferase, % of control":118,"luciferase per cell, z-score":0.762,"viable cells, % of control":108}
{"target":"ARHGEF38 (Rho guanine nucleotide exchange factor 38)","reagent no.":2,"total luciferase, z-score":-0.399,"total luciferase, % of control":73.9,"luciferase per cell, z-score":-0.699,"viable cells, % of control":99.3}
{"target":"ARHGEF38 (Rho guanine nucleotide exchange factor 38)","reagent no.":3,"total luciferase, z-score":-0.436,"total luciferase, % of control":73.2,"luciferase per cell, z-score":-0.312,"viable cells, % of control":88.8}

The listing continues:
no.	target	reagent no.	total luciferase, z-score	total luciferase, % of control	luciferase per cell, z-score	viable cells, % of control
31	FLT4 (fms related receptor tyrosine kinase 4)	1	-0.255	76.8	-0.389	95.1
32	FLT4 (fms related receptor tyrosine kinase 4)	2	1.24	107	0.953	92.7
33	FLT4 (fms related receptor tyrosine kinase 4)	3	-1.18	58.4	-1.07	86.5
34	MR1 (major histocompatibility complex, class I-related)	1	-1.28	56.4	-0.41	70.2
35	MR1 (major histocompatibility complex, class I-related)	2	-0.915	63.7	-0.906	90.3
36	MR1 (major histocompatibility complex, class I-related)	3	1.09	104	1.04	88
37	VDR (vitamin D receptor)	1	0.838	98.6	0.362	100
38	VDR (vitamin D receptor)	2	0.369	89.2	0.295	92.3
39	VDR (vitamin D receptor)	3	0.611	94	1.5	70.7
40	ZNF862 (zinc finger protein 862)	1	-0.791	66.2	-0.776	90.7
41	ZNF862 (zinc finger protein 862)	2	2.12	124	2.06	80.6
42	ZNF862 (zinc finger protein 862)	3	-0.822	65.5	-1.78	117
43	UMPS (uridine monophosphate synthetase)	1	-0.283	76.3	-0.167	89
44	UMPS (uridine monophosphate synthetase)	2	-0.719	67.6	-0.319	82.1
45	UMPS (uridine monophosphate synthetase)	3	2.52	132	0.632	125
46	UGT1A1 (UDP glucuronosyltransferase family 1 member A1)	1	-0.669	68.6	-0.668	91.4
47	UGT1A1 (UDP glucuronosyltransferase family 1 member A1)	2	-0.184	78.2	0.388	78.9
48	UGT1A1 (UDP glucuronosyltransferase family 1 member A1)	3	1.24	107	1.04	90.6
49	SORCS2 (sortilin related VPS10 domain containing receptor 2)	1	0.121	84.3	-0.689	113
50	SORCS2 (sortilin related VPS10 domain containing receptor 2)	2	-0.583	70.3	-0.423	87.8
51	SORCS2 (sortilin related VPS10 domain containing receptor 2)	3	-0.514	71.7	0.563	69
52	RPA1 (replication protein A1)	1	0.00506	82	0.172	87.6
53	RPA1 (replication protein A1)	2	0.522	92.3	0.123	99.8
54	RPA1 (replication protein A1)	3	0.149	84.9	-0.0988	97.3
55	CMTM2 (CKLF like MARVEL transmembrane domain containing 2)	1	0.528	92.4	0.506	90.4
56	CMTM2 (CKLF like MARVEL transmembrane domain containing 2)	2	-0.374	74.5	0.0771	81.5
57	CMTM2 (CKLF like MARVEL transmembrane domain containing 2)	3	0.593	93.7	-0.32	114
58	MAP4K3-DT (MAP4K3 divergent transcript)	1	2.67	135	2.42	79.9
59	MAP4K3-DT (MAP4K3 divergent transcript)	2	-0.589	70.2	-0.986	102
60	MAP4K3-DT (MAP4K3 divergent transcript)	3	0.94	101	2.17	63.4
61	TNPO3 (transportin 3)	1	0.313	88.1	1.39	68.2
62	TNPO3 (transportin 3)	2	-1.26	56.9	-1.58	96.3
63	TNPO3 (transportin 3)	3	-0.581	70.3	-0.804	97.1
64	CCNL2 (cyclin L2)	1	-0.295	76	-0.553	98.3
65	CCNL2 (cyclin L2)	2	-0.101	79.9	-0.242	95.1
66	CCNL2 (cyclin L2)	3	-0.203	77.8	0.178	83
67	GAGE1 (G antigen 1)	1	-0.732	67.3	-0.297	81.4
68	GAGE1 (G antigen 1)	2	-0.533	71.3	-0.116	82.1
69	GAGE1 (G antigen 1)	3	0.00789	82	0.259	85.6
70	EN1 (engrailed homeobox 1)	1	-1.36	54.9	-1.41	88.9
71	EN1 (engrailed homeobox 1)	2	1.79	117	0.781	107
72	EN1 (engrailed homeobox 1)	3	2.67	135	0.682	126
73	NCR3 (natural cytotoxicity triggering receptor 3)	1	0.825	98.3	0.505	96.2
74	NCR3 (natural cytotoxicity triggering receptor 3)	2	2.79	137	2.37	82.3
75	NCR3 (natural cytotoxicity triggering receptor 3)	3	2.1	124	2.43	72.8
